Results as given in article PMC4807781.
These are yes or no findings as the source states them, for the method shown. In cells and extracts the contact can be indirect. For some assays here: A result given as binding can be weak or reduced; the word gives no strength. For some assays here: Where a sequence is shown, tags or fusion partners need not be part of it.

Chains of the proteins cited; added tags and fusions are not shown. Lines headed by an entry give the natural chain unless they say otherwise; changes in a name come on top.
UniProt O23320: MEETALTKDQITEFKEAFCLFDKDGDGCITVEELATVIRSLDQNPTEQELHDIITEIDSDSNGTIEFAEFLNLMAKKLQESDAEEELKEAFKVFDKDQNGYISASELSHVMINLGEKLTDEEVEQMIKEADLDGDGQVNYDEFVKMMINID
UniProt Q9ZU46: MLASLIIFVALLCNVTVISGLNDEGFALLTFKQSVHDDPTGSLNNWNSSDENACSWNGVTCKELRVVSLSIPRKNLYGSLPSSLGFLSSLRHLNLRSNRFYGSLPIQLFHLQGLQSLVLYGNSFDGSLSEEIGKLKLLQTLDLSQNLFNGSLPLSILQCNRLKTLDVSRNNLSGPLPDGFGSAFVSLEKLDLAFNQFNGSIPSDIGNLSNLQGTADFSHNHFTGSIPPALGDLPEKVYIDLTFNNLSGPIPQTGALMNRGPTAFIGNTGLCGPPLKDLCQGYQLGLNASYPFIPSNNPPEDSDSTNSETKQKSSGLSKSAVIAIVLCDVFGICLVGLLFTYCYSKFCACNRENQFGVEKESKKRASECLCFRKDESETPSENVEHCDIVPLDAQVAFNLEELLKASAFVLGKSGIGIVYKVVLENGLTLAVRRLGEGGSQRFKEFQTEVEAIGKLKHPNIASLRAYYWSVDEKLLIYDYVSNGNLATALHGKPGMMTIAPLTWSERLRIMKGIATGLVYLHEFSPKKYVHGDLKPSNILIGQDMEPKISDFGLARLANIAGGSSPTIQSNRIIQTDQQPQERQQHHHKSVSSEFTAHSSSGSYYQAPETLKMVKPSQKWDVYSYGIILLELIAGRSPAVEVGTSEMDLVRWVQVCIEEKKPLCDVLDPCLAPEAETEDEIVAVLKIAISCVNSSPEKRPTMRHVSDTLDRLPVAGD

T1: MBP-AGB1 (Arabidopsis) (UniProt P49177)
T1 sequence: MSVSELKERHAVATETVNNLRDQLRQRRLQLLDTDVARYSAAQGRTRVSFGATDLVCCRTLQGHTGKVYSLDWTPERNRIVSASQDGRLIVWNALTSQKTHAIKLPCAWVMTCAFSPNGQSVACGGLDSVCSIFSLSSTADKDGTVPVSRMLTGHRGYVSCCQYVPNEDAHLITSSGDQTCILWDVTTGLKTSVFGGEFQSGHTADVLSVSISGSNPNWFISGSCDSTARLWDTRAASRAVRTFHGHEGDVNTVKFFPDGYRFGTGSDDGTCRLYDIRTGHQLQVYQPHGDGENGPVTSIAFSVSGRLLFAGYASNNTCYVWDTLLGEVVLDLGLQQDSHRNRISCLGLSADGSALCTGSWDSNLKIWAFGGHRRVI

T2: GST-tagged SSP protein (Arabidopsis) (UniProt Q7XJT7)
T2 sequence: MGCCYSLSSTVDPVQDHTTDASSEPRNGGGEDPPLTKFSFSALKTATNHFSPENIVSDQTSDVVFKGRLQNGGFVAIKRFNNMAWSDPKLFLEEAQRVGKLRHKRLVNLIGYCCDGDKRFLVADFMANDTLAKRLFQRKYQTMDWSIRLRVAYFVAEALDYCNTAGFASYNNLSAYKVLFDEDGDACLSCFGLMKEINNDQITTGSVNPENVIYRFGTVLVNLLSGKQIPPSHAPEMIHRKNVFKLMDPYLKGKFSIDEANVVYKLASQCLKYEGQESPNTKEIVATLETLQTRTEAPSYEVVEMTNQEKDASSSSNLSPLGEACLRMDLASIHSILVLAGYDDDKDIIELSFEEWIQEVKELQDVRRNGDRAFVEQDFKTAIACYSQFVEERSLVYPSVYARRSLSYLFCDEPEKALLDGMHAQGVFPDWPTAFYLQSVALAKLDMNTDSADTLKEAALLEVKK

T3: AGB1-nYFP (Arabidopsis) (UniProt P49177)
T3 sequence: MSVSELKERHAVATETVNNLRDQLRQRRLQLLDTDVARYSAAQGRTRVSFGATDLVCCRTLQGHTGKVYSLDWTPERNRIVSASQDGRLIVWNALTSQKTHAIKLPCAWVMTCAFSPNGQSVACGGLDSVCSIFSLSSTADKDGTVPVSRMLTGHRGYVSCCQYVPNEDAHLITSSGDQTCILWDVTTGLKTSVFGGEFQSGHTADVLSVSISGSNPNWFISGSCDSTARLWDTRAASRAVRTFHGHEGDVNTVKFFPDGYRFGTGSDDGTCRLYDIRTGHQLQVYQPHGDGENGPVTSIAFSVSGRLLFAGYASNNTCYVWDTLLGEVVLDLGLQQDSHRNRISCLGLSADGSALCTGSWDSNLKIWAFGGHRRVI


Columns and labels:
GST-CaM8 (Arabidopsis) = GST-CaM8 (Arabidopsis) (UniProt O23320); assay: pull-down; GST-tagged bait (CaM1, CaM8, SSP) on glutathione agarose with His-kinase or its variants; E. coli supernatants, 4°C overnight; 25 mmol/L Tris pH 7.5, 50 mmol/L NaCl, 3 mmol/L DTT; washes with 1% Triton X-100, 0.1% SDS; Western detection; calcium 2 to 10 μmol/L tested for CaM1 (S7 Fig)
MBP-AGB1 (Arabidopsis) [1] = biological target: T1, MBP-AGB1 (Arabidopsis); assay: pull-down; MBP-AGB1 as bait with His-kinase or its variants; proteins expressed in E. coli; Western detection
MBP-AGB1 (Arabidopsis) [2] = biological target: T1, MBP-AGB1 (Arabidopsis); assay: pull-down; His-tagged ZAR1 intracellular domain co-incubated with GST-CaM1 and MBP-AGB1 together; pulled down by GST-CaM1 or by MBP-AGB1
[3] = biological target: T2, GST-tagged SSP protein (Arabidopsis); assay: pull-down; GST-tagged bait (CaM1, CaM8, SSP) on glutathione agarose with His-kinase or its variants; E. coli supernatants, 4°C overnight; 25 mmol/L Tris pH 7.5, 50 mmol/L NaCl, 3 mmol/L DTT; washes with 1% Triton X-100, 0.1% SDS; Western detection; calcium 2 to 10 μmol/L tested for CaM1 (S7 Fig)
AGB1-nYFP (Arabidopsis) = biological target: T3, AGB1-nYFP (Arabidopsis); assay: split reporter; BiFC (cYFP and nYFP fusions, 35S promoter) in Arabidopsis leaf protoplasts, confocal microscopy
[4] = biological target: FLAG-ZAR1^ΔGβBS (Arabidopsis) (UniProt Q9ZU46); assay: co-IP; FLAG-tagged ZAR1 or variants co-expressed with HA-tagged AGB1 in Arabidopsis leaf protoplasts; membrane fraction in 1% Triton X-100; anti-FLAG-M2 gel, 4°C, 1 hr; Western blot

binding (GST-CaM8 (Arabidopsis)) | binding (MBP-AGB1 (Arabidopsis) [1]) | Molecule | also measured
no binding | – | His-kinase^ΔCaMBD (from UniProt Q9ZU46) (domain or fragment) | –
– | no binding | His-kinase^ΔGβBS (from UniProt Q9ZU46) (domain or fragment) | –
binds | binds | His-tagged ZAR1 kinase domain (from UniProt Q9ZU46) (domain or fragment) | binding (MBP-AGB1 (Arabidopsis) [2]): binds; binding [3]: binds
– | – | ZAR1^ΔGβBS-cYFP (from UniProt Q9ZU46) (receptor) | binding (AGB1-nYFP (Arabidopsis)): no binding
– | – | HA-AGB1 (protein, UniProt P49177 1-377) MSVSELKERHAVATETVNNLRDQLRQRRLQLLDTDVARYSAAQGRTRVSFGATDLVCCRTLQGHTGKVYSLDWTPERNRIVSASQDGRLIVWNALTSQKTHAIKLPCAWVMTCAFSPNGQSVACGGLDSVCSIFSLSSTADKDGTVPVSRMLTGHRGYVSCCQYVPNEDAHLITSSGDQTCILWDVTTGLKTSVFGGEFQSGHTADVLSVSISGSNPNWFISGSCDSTARLWDTRAASRAVRTFHGHEGDVNTVKFFPDGYRFGTGSDDGTCRLYDIRTGHQLQVYQPHGDGENGPVTSIAFSVSGRLLFAGYASNNTCYVWDTLLGEVVLDLGLQQDSHRNRISCLGLSADGSALCTGSWDSNLKIWAFGGHRRVI | binding [4]: no binding
